According to PubChem BioAssay AID504834 (National Center for Advancing Translational Sciences (NCATS), 2011):
Several values for one entry are separate records, joined by “and”; a condition that tells them apart may be missing. Equal entries are not always repeated. About 22,000 (6.9%) of roughly 320,000 compounds were called active. Inconclusive results, whose numbers are uncertain, are shown with a selection of clear calls. Calls follow the shape of the dose curve; as a rule, active = well fitted inhibition curve with a large enough effect; inconclusive = small, poorly fitted or top-dose-only effect, or another doubt; inactive = no such curve, though single readings can be large or run the other way. Where the call is inconclusive, the potency comes from a doubtful curve fit. Where a structure was tested more than once in an assay, its records may differ in their call.

Assay: Primary qHTS for delayed death inhibitors of the malarial parasite plastid, 96 hour incubation
Conditions: P. falciparum luciferase reporter growth; series mostly up to 28.7 µM; activity change, negative = inhibition: at the top concentration
Method in brief: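 Readout is luminescence from an integrated firefly luciferase in P. falciparum. Red cells, 2% hematocrit and 0.05% parasitemia final, were cultured with compound through two parasite generations (96 hours) at 37 C, 5% CO2.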
% is scaled to controls: 0 for no effect and ±100 for the full control effect; potency is read from the fitted curve at half-maximal effect.

Structure (SMILES)	Potency	activity change, negative = inhibition
Cc1nc2oc3c(=O)[nH]cnc3c2c2c1COC(C)(C)C2	inconclusive: 18.5 µM [inhibitor, single point]	
CC(C)N(C)Cc1nnnn1CC(=O)N(C)Cc1cccc(Cl)c1	inconclusive: 2.33 µM [inhibitor, partial curve]	
CCc1nnc(NC(=O)CSc2nc(-c3ccc(OC)cc3)ns2)s1	inconclusive: 8.28 µM [inhibitor, partial curve, poor fit]	
CS(=O)(=O)CCC(C(=O)OCc1ccc(Cl)cc1)N1C(=O)c2ccccc2C1=O (stereo not given)	inconclusive: 18.5 µM [inhibitor, single point]	
COc1ccc(NC(=O)c2cccc(S(=O)(=O)N3CCN(c4ccccc4)CC3)c2)c(OC)c1	inconclusive: 11.7 µM [inhibitor, partial curve, poor fit]	
O=C(NCCc1ccccc1)c1cccs1		inactive: 164%
COc1ccccc1C(=O)NC(=O)COC(=O)CCOc1cc(C)ccc1C	inconclusive: 0.131 µM [inhibitor, partial curve, poor fit]	
COc1ccc(NS(=O)(=O)c2ccc(Cl)c(C(=O)O)c2)cc1S(=O)(=O)N1CCCCC1		inactive: -7%
COc1ccc(C(=O)NN/C(C)=C/C(=O)c2ccccc2)cc1	inconclusive: 18.5 µM [inhibitor, single point]	
COc1cccc2cc(C(=O)NCc3ccc(C)cc3)c(=N)oc12	inconclusive: 16.5 µM [inhibitor, partial curve, poor fit]	
CCCn1nc(C(=O)NC2CCCc3ccccc32)c2ccccc2c1=O (stereo not given)	inconclusive: 18.5 µM [inhibitor, single point]	
CCOC(=O)C1=C(C)NC(=O)NC1c1c(OC)ccc2ccccc12 (stereo not given)	inconclusive: 4.15 µM [inhibitor, partial curve, poor fit]	
NNc1cc([N+](=O)[O-])cc2c1C(=O)N(Cc1ccccc1)S2=O (stereo not given)		inactive: -7.03%
O=c1c2c(-c3ccco3)csc2nc(SCc2cn3cccnc3n2)n1-c1ccccc1	active: 9.28 µM	
Cc1ccc(NC(=O)CSc2nc(N)c3c4c(sc3n2)CSC(C)(C)C4)cc1	inconclusive: 18.5 µM [inhibitor, single point]	
Cc1ccc(C2(O)CN(c3ccccc3)C3=[N+]2CCS3)cc1 (stereo not given)	inconclusive: 0.828 µM [inhibitor, full curve, poor fit]	
CCOC(=O)[C@@H]1[C@H]2COc3cc(OC)ccc3[C@@H]2N2C(=O)N(c3cccc(Cl)c3)C(=O)[C@]12C	inconclusive: 0.0029 µM [inhibitor, full curve, poor fit]	
CCCCn1c(N)c(N(CC(C)C)C(=O)c2cccc(S(=O)(=O)N(C)c3ccccc3)c2)c(=O)[nH]c1=O	inconclusive: 11.7 µM [inhibitor, partial curve]	
CSCCC(NS(=O)(=O)c1ccc2c(c1)OCCO2)C(=O)NCCc1ccccn1 (stereo not given)	inconclusive: 10.4 µM [inhibitor, single point]	
Cc1nc2nc3c(c(=O)n2[nH]1)CCC3		inactive: 23.8%
O=S1(=O)NC(=NCc2ccco2)c2ccccc21	inconclusive: 13.1 µM [inhibitor, single point]	
CC(CC(=O)Nc1ccccc1)NCCCN1CCCC1=O (stereo not given)		inactive: 28.1%
CC(C)(C)OC(=O)C1C(=O)CC(C)(O)C(C(=O)OC(C)(C)C)C1c1ccco1 (stereo not given)	inconclusive: 10.4 µM [inhibitor, single point]	
COc1ccc(N2CCN(C(=O)CSc3nnc(-c4ccco4)n3C)CC2)cc1		inactive: -12.5%

Whole records, looked up by structure:
O=c1c2c(-c3ccco3)csc2nc(SCc2cn3cccnc3n2)n1-c1ccccc1 reads Potency: active: 9.28 µM
COc1ccc(N2CCN(C(=O)CSc3nnc(-c4ccco4)n3C)CC2)cc1 reads activity change, negative = inhibition: inactive: -12.5%
CCc1nnc(NC(=O)CSc2nc(-c3ccc(OC)cc3)ns2)s1 reads Potency: inconclusive: 8.28 µM [inhibitor, partial curve, poor fit]
Cc1ccc(C2(O)CN(c3ccccc3)C3=[N+]2CCS3)cc1 (stereo not given) reads Potency: inconclusive: 0.828 µM [inhibitor, full curve, poor fit]

(cont.)

Structure (SMILES)	Potency	activity change, negative = inhibition
O=C(Nc1cccc(S(=O)(=O)C(F)F)c1)c1ccc(S(=O)(=O)N2CCCCC2)cc1		inactive: -5.04% [at 5.75 µM]
COc1ccc(-c2ccc(-c3nc4ccc(C)cn4c3NC3CCCCC3)cc2OC)cc1	active: 11.7 µM	
CN1CCN(CCCNC(=O)c2ccc(/C=C3/Sc4ccccc4N(Cc4cccc(Cl)c4)C3=O)cc2)CC1	inconclusive: 14.7 µM [inhibitor, single point]	
COc1ccc(NC(=O)/C(C#N)=C/c2ccc(-c3ccc(Cl)c(C(=O)O)c3)o2)cc1	inconclusive: 18.5 µM [inhibitor, single point]	
N#Cc1ccc2c(c1)C[C@]1(c3ccsc3)Oc3c(c(=O)oc4ccccc34)C2O1	inconclusive: 4.26 µM [inhibitor, partial curve, poor fit]	
COc1ccc(-n2c(-c3ccccc3)nc(=S)c3c2CCCC3)cc1	inconclusive: 14.7 µM [inhibitor, partial curve, poor fit]	
S=C1NC2(CCCCC2)Cc2ccccc21	active: 11.7 µM	
Cc1ccc(C)c(NC(=O)CCN2CCOCC2)c1	inconclusive: 18.5 µM [inhibitor, single point]	
CC(=O)N1CCN(C(=O)c2ccc(S(=O)(=O)Nc3cccc(C(F)(F)F)c3)cc2)CC1		inactive: -11.1%
Cc1nc2c3cc(F)ccc3n(Cc3ccc(F)cc3)c2s1	inconclusive: 18.5 µM [inhibitor, single point]	
Cc1ccc(S(=O)(=O)Cc2cc(-c3ccc(Cl)cc3)no2)cc1	inconclusive: 2.62 µM [inhibitor, partial curve]	
CC(=O)Oc1ccc(C(=O)O)cc1OC(C)=O	inconclusive: 18.5 µM [inhibitor, single point]	
CCCCn1c(N)c(N(CC)C(=O)CSc2nnc(-c3ccco3)n2CC)c(=O)[nH]c1=O		inactive: 0.49%
C=CCn1c(-c2ccccc2OC)n[nH]c1=S		inactive: 0%
CCOC(=O)[C@H]1[C@H]2COc3ccc(OC)cc3[C@@H]2N2C(=O)CN(CC3CCCO3)C(=O)[C@@]12C (stereo not given in full)	inconclusive: 5.22 µM [inhibitor, single point]	
COc1ccc(NC(=O)Nc2ccc(F)cc2F)c(C)c1	inconclusive: 1.31 µM [inhibitor, partial curve, poor fit]	
Cc1ccccc1NC(=O)c1c(Cl)nc(C)c(Cl)c1C	inconclusive: 10.4 µM [inhibitor, single point]	
COc1ccc(OC)c(CN2CCN(C(=O)COc3cccc(C)c3)CC2)c1		inactive: -27.1%
O=S(=O)(c1ccc(C2CCCCC2)cc1)N1CCN(c2ncccn2)CC1	inconclusive: 18.5 µM [inhibitor, single point]	
COC1=C/C(=C/c2c(N)n3c(nc2=O)sc2cc(S(C)(=O)=O)ccc23)C=CC1=O	inconclusive: 4.65 µM [inhibitor, partial curve, poor fit]	
CC(C)(C)c1ccc(OCC(=O)NNC(=S)NC(=O)c2ccco2)c(Br)c1		inactive: 0%
Cn1c(COc2ccccc2)nnc1SCC(=O)Nc1ccc(N2CCOCC2)c(Cl)c1	active: 4.15 µM	
CCc1ccc(NC(=O)c2sc3nc(C)nc(N4CCN(c5ccccn5)CC4)c3c2C)cc1		inactive: 3.13%
O=C(NCCc1ccccc1)C(=O)Nc1nccs1		inactive: 32.5%

Structure (SMILES)	Potency	activity change, negative = inhibition
CN(C(=O)COC(=O)c1ccccc1NCc1ccco1)c1c(N)n(Cc2ccccc2)c(=O)[nH]c1=O	inconclusive: 18.5 µM [inhibitor, single point]	
Cc1ccc(/C=C/S(=O)(=O)NCC(=O)OCC(=O)Nc2ccc(C(N)=O)cc2)cc1		inactive: -6.91%
O=C(O)CCn1c(SCCOc2ccccc2)nc2ccccc21	active: 11.7 µM	
COc1ccccc1N(CC(O)COc1c(C)cc(C)cc1C)S(=O)(=O)c1ccccc1 (stereo not given)	active: 13.1 µM	
CCC(Oc1ccccc1)C(=O)Nc1cc(Cl)ccc1-n1cncn1 (stereo not given)	active: 11.7 µM	
CCOC(=O)c1ccc(S(=O)(=O)N2CCN(C(=O)c3cc4ccccc4o3)CC2)cc1	inconclusive: 0.131 µM [inhibitor, full curve, poor fit]	
Cc1nc(SCC(=O)Nc2ccc(OCc3ccccc3)cc2)n[nH]1		inactive: 31.8%
CC(CCc1ccccc1)NC(=O)CCCCCNc1nc(=S)[nH]c2ccccc12 (stereo not given)	inconclusive: 13.1 µM [inhibitor, partial curve, poor fit]	
CC1CCc2nn(CC(=O)Nc3ccc(F)cc3F)cc2C1 (stereo not given)	active: 2.94 µM	
COc1cccc(/C=C/C(=O)Nc2ccccc2N2CCOCC2)c1		inactive: -16.8%
CC(=O)Nc1ccc(Nc2c3ccccc3nc3ccccc23)cc1		inactive: -19%
CCOC(=O)CCC(NC(=O)c1cncc(O)c1)C(=O)OCC (stereo not given)	inconclusive: 18.5 µM [inhibitor, single point]	
CCc1ccc(CNCCc2c[nH]c3ccccc23)cc1	active: 7.38 µM	
Cc1cc(C)n2nc(-c3ccsc3-n3c(C)ccc3C)cc2n1	inconclusive: 7.38 µM [inhibitor, partial curve]	
OCCCN=c1cc(-c2ccccc2)oc2ccc(Cl)cc12	inconclusive: 0.0828 µM [inhibitor, full curve, poor fit]	
O=C(c1ccccc1F)N(Cc1ccccc1)Cc1ccccc1	inconclusive: 18.5 µM [inhibitor, single point]	
O=C(NCCCCCCOC1=NS(=O)(=O)c2ccccc21)C(=O)Nc1ccccc1		inactive: 37%
COc1cccc(CNS(=O)(=O)c2c(C(=O)N3CCCCC3)c(C)n(C)c2C)c1	inconclusive: 8.28 µM [inhibitor, partial curve, poor fit]	
COc1ccc(C(C)C)cc1S(=O)(=O)n1ccnc1C	inconclusive: 13.1 µM [inhibitor, partial curve]	
COc1ccc2c(c1)[nH]c1c(=O)n(Cc3ccncc3)cnc12		inactive: -3.62%
N#CC1=C(N2CCOCC2)/C(=C\c2ccccc2)CC1		inactive: 24.2%
